In paper PMC4258286:
Results are given in words; binding and its absence hold for the method and conditions named. Some binding calls cover weakened binding; strength is not graded here.

Amino acid sequences for entries named in this document (tags omitted). Residues count along the entry.
UniProt Q9CQ22: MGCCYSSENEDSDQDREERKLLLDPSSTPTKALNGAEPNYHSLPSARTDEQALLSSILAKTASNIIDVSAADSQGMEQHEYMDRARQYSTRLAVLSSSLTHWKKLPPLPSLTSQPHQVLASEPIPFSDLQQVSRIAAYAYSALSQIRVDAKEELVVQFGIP
UniProt Q80ZV0, residues 111-308: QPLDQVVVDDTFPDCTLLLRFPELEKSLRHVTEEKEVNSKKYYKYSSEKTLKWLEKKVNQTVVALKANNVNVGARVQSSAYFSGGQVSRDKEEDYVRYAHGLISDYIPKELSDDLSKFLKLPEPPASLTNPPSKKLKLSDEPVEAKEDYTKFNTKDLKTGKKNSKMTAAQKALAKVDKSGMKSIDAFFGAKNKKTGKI

Biological target: integrin-like A domain of Toxoplasma gondii micronemal protein MIC2 (residues 74-270), GAL4 DNA-binding domain fusion from pGBKT7-A/I (Toxoplasma gondii (RH strain)) (UniProt O00816)
Assay: two-hybrid; Matchmaker Gold system: Y2HGold with bait pGBKT7-A/I mated with Y187 carrying the mouse cDNA library (24 h, 30°C), selection on DDO/X/A then QDO/X/A; each prey plasmid retested by co-transformation with the bait into Y2HGold on QDO/X/A, blue colonies positive

Row | Substance | binding
1 | late endosomal/lysosomal adaptor, MAPK and mTOR activator 1 (LAMTOR1), mouse, prey from the cDNA library (from UniProt Q9CQ22 1-161) | binds
2 | ribonuclease H2 subunit B (RNaseH2B), mouse, C-terminus (residues 111-308), prey from the cDNA library (from UniProt Q80ZV0 111-308) (domain or fragment) | binds
